In PMC5543739:
No constants are given. Whether binding was seen depends on the method and setting. Binding seen in cells or lysates may run through a third protein.

Target: T1, NFATc2 (nuclear factor of activated T-cells c2), endogenous in PaTu 8988t cells (human (endogenous in PaTu 8988t)), Q13469
T1 chain: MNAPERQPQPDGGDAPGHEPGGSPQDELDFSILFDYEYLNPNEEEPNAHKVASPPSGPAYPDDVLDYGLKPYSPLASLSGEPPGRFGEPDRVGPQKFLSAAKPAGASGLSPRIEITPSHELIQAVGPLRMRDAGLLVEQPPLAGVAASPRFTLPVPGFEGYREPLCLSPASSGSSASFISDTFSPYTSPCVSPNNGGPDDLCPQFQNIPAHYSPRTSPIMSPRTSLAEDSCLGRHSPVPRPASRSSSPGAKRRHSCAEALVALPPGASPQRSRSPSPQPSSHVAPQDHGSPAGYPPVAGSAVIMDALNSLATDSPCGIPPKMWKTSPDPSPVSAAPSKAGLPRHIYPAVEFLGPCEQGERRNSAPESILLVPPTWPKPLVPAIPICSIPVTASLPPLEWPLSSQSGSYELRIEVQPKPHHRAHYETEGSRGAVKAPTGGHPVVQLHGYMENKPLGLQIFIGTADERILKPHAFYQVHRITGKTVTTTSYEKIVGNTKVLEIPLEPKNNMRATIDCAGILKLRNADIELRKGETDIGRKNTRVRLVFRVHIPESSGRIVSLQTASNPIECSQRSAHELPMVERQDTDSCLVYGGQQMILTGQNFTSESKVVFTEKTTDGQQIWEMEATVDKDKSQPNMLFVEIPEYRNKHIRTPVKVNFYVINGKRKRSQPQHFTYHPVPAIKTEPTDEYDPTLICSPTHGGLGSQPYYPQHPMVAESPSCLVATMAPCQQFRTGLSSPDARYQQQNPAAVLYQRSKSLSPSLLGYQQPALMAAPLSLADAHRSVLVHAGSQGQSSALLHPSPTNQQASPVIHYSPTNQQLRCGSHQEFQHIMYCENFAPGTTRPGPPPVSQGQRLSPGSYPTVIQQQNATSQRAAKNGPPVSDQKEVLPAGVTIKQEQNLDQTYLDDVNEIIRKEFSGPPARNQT
Assay: co-IP; 500 ug PaTu 8988t lysate immunoprecipitated with anti-NFATc2 antibody and protein G or A agarose, blotted for Sp1 and MEF 2A; cells serum-free 3 h, then 0.5 uM Ionomycin for 0, 10, 60 min
Details: remark: other sources report otherwise

binding: no binding
B1: MEF 2A (myocyte enhancer factor 2A), endogenous in PaTu 8988t cells, Q02078 1-507 (protein)
chain: MGRKKIQITRIMDERNRQVTFTKRKFGLMKKAYELSVLCDCEIALIIFNSSNKLFQYASTDMDKVLLKYTEYNEPHESRTNSDIVEALNKKEHRGCDSPDPDTSYVLTPHTEEKYKKINEEFDNMMRNHKIAPGLPPQNFSMSVTVPVTSPNALSYTNPGSSLVSPSLAASSTLTDSSMLSPPQTTLHRNVSPGAPQRPPSTGNAGGMLSTTDLTVPNGAGSSPVGNGFVNSRASPNLIGATGANSLGKVMPTKSPPPPGGGNLGMNSRKPDLRVVIPPSSKGMMPPLSEEEELELNTQRISSSQATQPLATPVVSVTTPSLPPQGLVYSAMPTAYNTDYSLTSADLSALQGFNSPGMLSLGQVSAWQQHHLGQAALSSLVAGGQLSQGSNLSINTNQNISIKSEPISPPRDRMTPSGFQQQQQQQQQQQPPPPPQPQPQPPQPQPRQEMGRSPVDSLSSSSSSYDGSDREDPRGDFHSPIVLGRPPNTEDRESPSVKRMRMDAWVT
